PubChem BioAssay AID602196 | INSERM – 2012

Aim: 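Knock-downs that protect lung cancer cells from cisplatin or sensitise them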
Cell system: human A549 lung cancer cells
Reagents: siRNA pair against human genes
Time to read-out: 48 h transfection before cisplatin; time from cisplatin to read-out not stated
Conditions: cisplatin at a dose killing half of control-siRNA cells; exact dose and duration not given
Detection: 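Shift in cisplatin death relative to control siRNA, from -50 (all cells die) to +50 (no cells die); siRNAs harmful on their own scored 0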
Reading the numbers: two-siRNA summed score (-2 to +2): higher = both siRNAs protect from cisplatin killing; -2 means both sensitise; mean protection from cisplatin (shift in death) and protection from cisplatin (shift in death), siRNA C and protection from cisplatin (shift in death), siRNA D: higher = protection from cisplatin killing
Hit rule: 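siRNAs harmful alone (LDH or WST-1) get 0; others get +1 for less and -1 for more cisplatin killing; genes are active when the two siRNAs give the same sign, summing to ±2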
Meaning of the calls: active = both siRNAs shift cisplatin killing the same way; inactive = no consistent shift, or siRNA harmful alone
In all, the deposit lists about 23,000 reagents; this is a part drawn at random. 455 of all reagents (2%) were called active. 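Active includes both protection and sensitisation; some change values fall well beyond the stated -50 to +50 range.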 Not stated in the record: the amount of reagent.

no.	target	two-siRNA summed score (-2 to +2)	mean protection from cisplatin (shift in death) (%)	protection from cisplatin (shift in death), siRNA C (%)	protection from cisplatin (shift in death), siRNA D (%)	outcome
1	OPTC (opticin)	0	-1.3	9.7	-12.3	inactive
2	LOC441566	0	7.2	1.9	12.4	inactive
3	TMEM230 (transmembrane protein 230)	0	6	5.5	6.5	inactive
4	CNR1 (cannabinoid receptor 1)	0	-2	-8.3	4.2	inactive
5	LOC440796	0	8.2	8.6	7.8	inactive
6	LOC442158	0	5.6	7.5	3.6	inactive
7	HAL (histidine ammonia-lyase)	0	-3	9.2	-15.2	inactive
8	MMRN1 (multimerin 1)	1	14.1	13.5	14.7	inactive
9	GJA3 (gap junction protein alpha 3)	0	-18.6	-5.2	-32.1	inactive
10	ADAMTS2 (ADAM metallopeptidase with thrombospondin type 1 motif 2)	0	1.8	1.8	1.7	inactive
11	GMEB1 (glucocorticoid modulatory element binding protein 1)	-1	-9.6	-5	-14.3	inactive
12	BCCIP (BRCA2 and CDKN1A interacting protein)	0	14.8	6.1	23.4	inactive
13	MECP2 (methyl-CpG binding protein 2)	0	3	5	0.9	inactive
14	MYO5C (myosin VC)	1	6.2	14.1	-1.7	inactive
15	PIWIL1 (piwi like RNA-mediated gene silencing 1)	0	-0.4	12.8	-13.6	inactive
16	PAFAH2 (platelet activating factor acetylhydrolase 2)	0	6.2	2.3	10.1	inactive
17	NOVA2 (NOVA alternative splicing regulator 2)	-1	-6.4	-17.5	4.7	inactive
18	ACADSB (acyl-CoA dehydrogenase short/branched chain)	0	1.5	6.3	-3.2	inactive
19	CPN2 (carboxypeptidase N subunit 2)	-1	-10.7	-21.7	0.2	inactive
20	DHTKD1 (dehydrogenase E1 and transketolase domain containing 1)	1	6.8	12.7	0.8	inactive
21	LOC440161	0	13.7	13.8	13.5	inactive
22	CDH3 (cadherin 3)	-1	-18.5	-15.5	-21.6	inactive
23	LOC441316	1	14.3	19.2	9.4	inactive
24	SLC9A9	-1	-12.3	-20.7	-3.9	inactive
25	FBP2 (fructose-bisphosphatase 2)	0	4.7	7.9	1.6	inactive
26	LOC440232	1	15.6	19.9	11.3	inactive
27	ANKS4B (ankyrin repeat and sterile alpha motif domain containing 4B)	1	8.5	0.4	16.5	inactive
28	NOTCH2 (notch receptor 2)	0	-17.8	-32.9	-2.7	inactive
29	PDCD7 (programmed cell death 7)	0	4.6	2.3	6.9	inactive
30	KBTBD8 (kelch repeat and BTB domain containing 8)	0	-2.5	-3.1	-1.8	inactive
31	COX6C (cytochrome c oxidase subunit 6C)	0	8.7	-11.8	29.1	inactive
32	ATP6V0A4 (ATPase H+ transporting V0 subunit a4)	0	17	21.6	12.4	inactive
33	KIAA2013	0	9.6	9.1	10.1	inactive
34	DUX4L1 (double homeobox 4 like 1 (pseudogene))	0	7.8	8.5	7.2	inactive
35	CYFIP2 (cytoplasmic FMR1 interacting protein 2)	0	-3.7	0.8	-8.2	inactive
36	PSMD14 (proteasome 26S subunit, non-ATPase 14)	0	7.5	7.7	7.3	inactive
37	H2AC21 (H2A clustered histone 21)	1	25.6	41.2	10.1	inactive
38	CCDC140 (CCDC140 long non-coding RNA)	0	6.9	-3.5	17.3	inactive
39	LOC442622	1	13.1	8.9	17.3	inactive

Sorted by “two-siRNA summed score (-2 to +2)” (descending): some entries from above
target	two-siRNA summed score (-2 to +2)	mean protection from cisplatin (shift in death) (%)	protection from cisplatin (shift in death), siRNA C (%)	protection from cisplatin (shift in death), siRNA D (%)	outcome
DHTKD1 (dehydrogenase E1 and transketolase domain containing 1)	1	6.8	12.7	0.8	inactive
ACADSB (acyl-CoA dehydrogenase short/branched chain)	0	1.5	6.3	-3.2	inactive
LOC440161	0	13.7	13.8	13.5	inactive
NOVA2 (NOVA alternative splicing regulator 2)	-1	-6.4	-17.5	4.7	inactive
CPN2 (carboxypeptidase N subunit 2)	-1	-10.7	-21.7	0.2	inactive
CDH3 (cadherin 3)	-1	-18.5	-15.5	-21.6	inactive
